Test results: paper PMC9048505 (RSC Advances, 2020)

System: MCF-7
Test: In vitro anti-proliferative activity, MTT assay, MCF-7
Assay type: cell-based
Conditions: Homo sapiens, MCF7, 24 h, read-out: IC50 MCF-7
Description: Colchicine was used as a positive control. […] The cells were obtained from ATCC (American Type Culture Collection) via the Holding company for biological products and vaccines (VACSERA) (Cairo, Egypt). The anti-cancer activity was measured quantitatively as follows: Into a medium of RPMI-1640 with 10% fetal bovine serum, the cell lines were cultured. Then, penicillin (100 units per mL) and streptomycin (100 μg mL^−1) were added at 37 °C in a 5% CO2 incubator. […] After incubation period, the cell lines were treated with different concentration of the synthesized compounds and incubated for 24 h. After treatment by 24 h, 20 μL of MTT solution (5 mg mL^−1) was added and incubated for 4 h. Dimethyl sulfoxide (100 μL) was added into each well to dissolve the formed purple formazan. The colorimetric assay was measured and recorded at absorbance of 570 nm using a plate reader (EXL 800, USA). The relative cell viability in percentage was calculated as (A570 of treated samples/A570 of untreated sample) X 100.

How did the IC50 turn out when `COc1cc2c(c(OC)c1OC)-c1ccc(OC)c(=O)cc1[C@@H](NC(C)=O)CC2` [Colchicine, reference compound] was run?
The IC50 was 10.5 ± 0.3 µM.
